In patent US20090062199A1, “Nogo Receptor Polypeptides and Polypeptide Fragments and Uses Thereof” (Biogen Idec MA Inc., priority 2005, published 2009):
Results are given in words; binding and its absence hold for the method and conditions named. Some entries that bind do so weakly or less than the wild type. For part of these data: Sequences can lack the tags named with a protein.

Protein sequences, listed by entry. Tags and fused reporters are not part of them. Residues count along the entry.
UniProt P08138, residues 29-250: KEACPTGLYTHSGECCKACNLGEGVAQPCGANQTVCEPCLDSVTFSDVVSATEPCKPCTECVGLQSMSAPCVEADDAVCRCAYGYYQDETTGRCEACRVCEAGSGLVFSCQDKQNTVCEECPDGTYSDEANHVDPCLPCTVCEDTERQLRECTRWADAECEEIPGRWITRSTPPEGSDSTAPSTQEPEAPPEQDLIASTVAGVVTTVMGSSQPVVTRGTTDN
UniProt Q96FE5, residues 42-538: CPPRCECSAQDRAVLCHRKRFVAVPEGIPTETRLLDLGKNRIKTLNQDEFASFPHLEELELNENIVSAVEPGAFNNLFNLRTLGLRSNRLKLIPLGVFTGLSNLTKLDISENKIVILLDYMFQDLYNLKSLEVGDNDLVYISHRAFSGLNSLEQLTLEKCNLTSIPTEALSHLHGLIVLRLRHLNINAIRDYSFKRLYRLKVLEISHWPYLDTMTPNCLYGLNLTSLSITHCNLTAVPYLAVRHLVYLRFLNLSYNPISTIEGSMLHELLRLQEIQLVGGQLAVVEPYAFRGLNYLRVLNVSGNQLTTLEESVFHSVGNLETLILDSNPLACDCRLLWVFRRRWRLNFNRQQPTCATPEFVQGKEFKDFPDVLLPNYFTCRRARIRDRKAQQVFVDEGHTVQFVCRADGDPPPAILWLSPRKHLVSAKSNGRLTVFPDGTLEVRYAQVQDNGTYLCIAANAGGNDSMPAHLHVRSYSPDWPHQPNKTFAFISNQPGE
UniProt Q9NQC3, residues 1055-1120: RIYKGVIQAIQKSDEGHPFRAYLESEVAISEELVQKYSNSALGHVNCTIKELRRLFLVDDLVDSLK

How the values were obtained:
[1] = molecular target: p75 (UniProt P08138); assay: ELISA
[2] = molecular target: T1, TAJ (UniProt Q9NS68 30-170, limits assumed); assay: ELISA
T1 construct: also called TROY
T1 sequence (looked up): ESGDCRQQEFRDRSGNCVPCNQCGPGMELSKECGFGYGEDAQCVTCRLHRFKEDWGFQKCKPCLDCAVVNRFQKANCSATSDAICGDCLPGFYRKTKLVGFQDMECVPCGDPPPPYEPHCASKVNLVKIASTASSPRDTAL

[3] = molecular target: T2, OMgp (UniProt P23515); assay: ELISA
T2 sequence (looked up): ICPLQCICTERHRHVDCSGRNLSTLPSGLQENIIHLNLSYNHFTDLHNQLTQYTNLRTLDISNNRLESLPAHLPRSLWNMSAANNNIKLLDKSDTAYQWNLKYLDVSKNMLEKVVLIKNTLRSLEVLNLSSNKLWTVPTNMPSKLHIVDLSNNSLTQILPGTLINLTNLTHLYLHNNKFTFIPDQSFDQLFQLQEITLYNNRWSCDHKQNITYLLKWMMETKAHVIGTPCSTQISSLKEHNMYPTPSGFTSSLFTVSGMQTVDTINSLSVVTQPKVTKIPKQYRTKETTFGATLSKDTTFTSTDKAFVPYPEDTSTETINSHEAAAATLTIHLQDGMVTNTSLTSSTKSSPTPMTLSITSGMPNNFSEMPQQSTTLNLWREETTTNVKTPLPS

[4] = molecular target: LINGO-1 (UniProt Q96FE5); assay: ELISA
[5] = molecular target: Nogo-66 (UniProt Q9NQC3); assay: ELISA
[6] = molecular target: T1, TAJ; assay: ELISA; binds more weakly than FL-NgR1

Measured: binding

B1: Human NgR1, excluding the GPI domain (FL-NgR1, residues 27-438) with a flag tag at its N-terminus (receptor)
chain: CPGACVCYNEPKVTTSCPQQGLQAVPVGIPAASQRIFLHGNRISHVPAASFRACRNLTILWLHSNVLARIDAAAFTGLALLEQLDLSDNAQLRSVDPATFHGLGRLHTLHLDRCGLQELGPGLFRGLAALQYLYLQDNALQALPDDTFRDLGNLTHLFLHGNRISSVPERAFRGLHSLDRLLLHQNRVAHVHPHAFRDLGRLMTLYLFANNLSALPTEALAPLRALQYLRLNDNPWVCDCRARPLWAWLQKFRGSSSEVPCSLPQRLAGRDLKRLAANDLQGCAVATGPYHPIWTGRATDEEPLGLPKCCQPDAADKASVLEPGRPASAGNALKGRVPPGDSPPGNGSGPRHINDSPFGTLPGSAEPPLTAVRPEGSEPPGFPTSGPRRRPGCSRKNRTRSHCRLGQAGSGG
notes: Soluble protein expressed in CHO cells; also called human FL-NgR1; NgRI; not shown: N-terminal flag tag
not listed: [6]
binds: all other assays above

B2: NgR1 (310), truncated version containing just the LRR region (receptor, not shown: small tags and cut ends)
chain: CPGACVCYNEPKVTTSCPQQGLQAVPVGIPAASQRIFLHGNRISHVPAASFRACRNLTILWLHSNVLARIDAAAFTGLALLEQLDLSDNAQLRSVDPATFHGLGRLHTLHLDRCGLQELGPGLFRGLAALQYLYLQDNALQALPDDTFRDLGNLTHLFLHGNRISSVPERAFRGLHSLDRLLLHQNRVAHVHPHAFRDLGRLMTLYLFANNLSALPTEALAPLRALQYLRLNDNPWVCDCRARPLWAWLQKFRGSSSEVPCSLPQRLAGRDLKRLAANDLQGCA
binds: [6]
